Binding data for 5 molecules are collected here from article PMC4377584.

Numbering of substitutions follows the chain as printed. These are yes or no findings as the source states them, for the method shown. In cells and extracts the contact can be indirect. Some entries that bind do so weakly or less than the wild type. For some assays here: Where a sequence is shown, tags or fusion partners need not be part of it.

The target in test [1] is T1, WDR24 (endogenous, mouse liver) (mouse (endogenous in liver)) (UniProt Q8CFJ9).
T1 sequence: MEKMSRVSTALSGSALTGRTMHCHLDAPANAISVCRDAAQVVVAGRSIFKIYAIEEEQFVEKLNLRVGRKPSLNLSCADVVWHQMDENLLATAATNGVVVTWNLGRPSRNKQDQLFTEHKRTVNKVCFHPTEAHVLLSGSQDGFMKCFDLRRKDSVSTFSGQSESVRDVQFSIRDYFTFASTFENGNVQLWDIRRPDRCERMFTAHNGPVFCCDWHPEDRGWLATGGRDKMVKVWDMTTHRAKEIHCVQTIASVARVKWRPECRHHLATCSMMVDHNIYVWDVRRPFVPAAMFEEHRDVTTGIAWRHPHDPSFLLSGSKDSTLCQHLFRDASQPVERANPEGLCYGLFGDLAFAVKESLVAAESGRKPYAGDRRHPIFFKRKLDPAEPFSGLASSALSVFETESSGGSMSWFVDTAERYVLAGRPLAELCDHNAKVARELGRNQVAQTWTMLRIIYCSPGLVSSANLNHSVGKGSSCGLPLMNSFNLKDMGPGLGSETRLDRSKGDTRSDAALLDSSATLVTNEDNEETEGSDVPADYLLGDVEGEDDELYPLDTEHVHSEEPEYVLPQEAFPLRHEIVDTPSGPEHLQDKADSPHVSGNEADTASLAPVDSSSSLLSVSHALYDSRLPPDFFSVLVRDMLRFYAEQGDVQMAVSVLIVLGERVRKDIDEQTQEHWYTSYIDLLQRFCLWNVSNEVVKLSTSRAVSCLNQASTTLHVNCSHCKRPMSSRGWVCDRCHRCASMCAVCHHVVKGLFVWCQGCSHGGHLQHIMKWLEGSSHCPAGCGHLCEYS
The test is described as follows: co-IP; endogenous GATOR proteins; mouse liver lysates IPed with WDR24 antibody; mice injected with adenoviruses expressing GFP or Sestrin2 (4 days) or WT or Sesn2-/- mice injected with tunicamycin (24 hrs); immunoblot. In general terms: A western blot detects proteins with antibodies after separation by electrophoresis.

The target in test [2] is T2, Flag-tagged Sestrin2, P58004.
T2 chain: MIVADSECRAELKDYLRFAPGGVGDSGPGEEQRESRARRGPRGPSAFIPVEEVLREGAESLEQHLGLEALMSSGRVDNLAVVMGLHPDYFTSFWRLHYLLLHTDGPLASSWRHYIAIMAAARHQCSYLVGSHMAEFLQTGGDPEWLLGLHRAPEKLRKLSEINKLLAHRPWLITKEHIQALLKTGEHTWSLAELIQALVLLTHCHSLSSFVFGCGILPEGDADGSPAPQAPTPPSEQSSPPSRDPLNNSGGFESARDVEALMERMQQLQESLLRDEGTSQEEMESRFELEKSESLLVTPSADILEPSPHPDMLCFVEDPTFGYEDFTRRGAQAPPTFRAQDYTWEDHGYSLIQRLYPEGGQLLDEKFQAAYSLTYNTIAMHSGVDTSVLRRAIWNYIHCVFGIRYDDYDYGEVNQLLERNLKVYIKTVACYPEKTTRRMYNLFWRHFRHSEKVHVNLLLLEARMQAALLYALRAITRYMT
The experiment in a line: co-IP; HEK293 cells co-transfected with Sestrin2 (or Sestrin1, or truncated Sestrin2) and all GATOR2 components, in Fig. S3D also the GATOR1 components; Sestrin2 IPed (Flag antibody in Fig. 1C); lysis buffer with 0.3% CHAPS; immunoblot. The following applies: remark: other sources report otherwise.

A further test deals with T3, Flag-tagged Sestrin2 (UniProt P58004).
T3 sequence: T2 chain
The test is described as follows: co-IP; HEK293 cells co-expressing Sestrin2 and one single candidate protein at a time (Fig. S1A); lysis buffer with 0.3% CHAPS.

B1: endogenous Sestrin2 (mouse) (protein, UniProt P58043 1-480)
chain: MIVADSECHSEIKGYLPFTRGGVAGPETREEHREGQARRGSRGPSAFIPVEEILREGAESLEQHLGLEALMSSGRVDNLAVVMGLHPDYLSSFWRLHYLLLHTDGPLASSWRHYIAIMAAARHQCSYLVGSHMTEFLQTGGDPEWLLGLHRAPEKLRKLSEVNKLLAHRPWLITKEHIQALLKTGEHSWSLAELIQALVLLTHCHSLASFVFGCGILPEGDAEGSPASQAPSPPSEQGTPPSGDPLNNSGGFEAARDVEALMERMRQLQESLLRDEGASQEEMENRFELEKSESLLVTPSADILEPSPHPDILCFVEDPAFGYEDFTRRGTQAPPTFRAQDYTWEDHGYSLIQRLYPEGGQLLDEKFQVACSLTYNTIAMHSGVDTSMLRRAIWNYIHCVFGIRYDDYDYGEVNQLLERNLKIYIKTVACYPEKTTRRMYNLFWRHFRHSEKVHVNLLLLEARMQAALLYALRAITRYMT
For B1, the binding result in test [1] is given as “binds”.

B2: NPRL2 (endogenous, mouse liver) (protein, UniProt Q9WUE4 1-380)
chain: MGSSCRIECIFFSEFHPTLGPKITYQVPEDFISRELFDTVQVYIITKPELQNKLITVTAMEKKLIGCPVCIEHKKYSRNALLFNLGFVCDAQAKTCALEPIVKKLAGYLTTLELESSFVSNEESKQKLVPIMTILLEELNASGRCTLPIDESNTIHLKVIEQRPDPPVAQEYDVPVFTKDKEDFFSSQWDLTTQQILPYIDGFRHVQKISAEADVELNLVRIAIQNLLYYGVVTLVSILQYSNVYCPTPKVQDLVDDKSLQEACLSYVTKQGHKRASLRDVFQLYCSLSPGTTVRDLIGRHPQQLQHVDERKLIQFGLMKNLIRRLQKYPVRVSREERSHPARLYTGCHSYDEICCKTGMSYHELDERLENDPNIIICWK
For B2, the binding result in test [1] is given as “binds”.

B3: NPRL2 (transfected), Q8WTW4 1-380 (protein)
chain: B2 chain with S4G, N121M, S186N, V206I, S334T, R338Q
Regarding B3, in test [2], the binding entry is reported as “no binding”.

B4: human Sestrin2 expressed from adenovirus (protein, UniProt P58004 1-480)
chain: T2 chain
Turning to B4, the binding entry in test [1] is on record as “binds”.

B5: PPM1A (co-expressed) (protein, UniProt P35813 1-382)
chain: MGAFLDKPKMEKHNAQGQGNGLRYGLSSMQGWRVEMEDAHTAVIGLPSGLESWSFFAVYDGHAGSQVAKYCCEHLLDHITNNQDFKGSAGAPSVENVKNGIRTGFLEIDEHMRVMSEKKHGADRSGSTAVGVLISPQHTYFINCGDSRGLLCRNRKVHFFTQDHKPSNPLEKERIQNAGGSVMIQRVNGSLAVSRALGDFDYKCVHGKGPTEQLVSPEPEVHDIERSEEDDQFIILACDGIWDVMGNEELCDFVRSRLEVTDDLEKVCNEVVDTCLYKGSRDNMSVILICFPNAPKVSPEAVKKEAELDKYLECRVEEIIKKQGEGVPDLVHVMRTLASENIPSLPPGGELASKRNVIEAVYNRLNPYKNDDTDSTSTDDMW
Regarding B5, in the test with Flag-tagged Sestrin2, the binding entry is “binds weakly”.
